Inconclusive means that the source gave no clear call. Such entries were picked first, then a sample of the others. Potencies beside an inconclusive call are fits to weak or partial responses and may not hold up. The source made the active and inactive calls. Calls follow the shape of the dose curve; as a rule, active = well fitted activation curve with a large enough effect; inconclusive = small, poorly fitted or top-dose-only effect; inactive = no such curve, though single readings can be large or run the other way.
experiment: qHTS assay for re-activators of p53 using a Luc reporter: Hit Validation; conditions: p53-responsive luciferase reporter cells, luminescence, H1299 line expressing heat-sensitive Ala138Val p53; series mostly up to 46.1 µM; activation: at the top concentration; also: nearly all actives have a fitted effect of over 75% in size; as to activation: 0% is about no effect
Summary of the method: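 H1299 (p53-null) cells stably carrying p53-A138V and a BP100-luciferase reporter, 1000 cells/well, treated 24 h at 37 deg C. Compounds at several concentrations, 1:5 dilution; nocodazole control; luminescence read after 10 min with detection reagent.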
Potency is read from the fitted curve at half-maximal effect.

Row | Compound | Potency | activation
1 | Cc1ccccc1CSc1ncc(C#N)c(N)n1 | inconclusive: 29.1 µM [activator, single point] | 
2 | Cc1ccc(C2=CC(c3ccc(N(C)C)cc3)n3nnnc3N2)cc1 (centres undefined) | inconclusive: 29.1 µM [activator, single point] | 
3 | COc1ccc2cc(C3(C)NC(=O)N(CC(=O)Nc4c(C)n(C)n(-c5ccccc5)c4=O)C3=O)ccc2c1 (centres undefined) |  | inactive: -22.9%
4 | O=C(CC1SC(N2CCCC2)=NC1=O)Nc1ccc(C(=O)Nc2ncccc2O)cc1 (centres undefined) | active: 16.4 µM | 
5 | O=C(/C=C/Nc1ccc(F)cc1F)c1cccs1 | inconclusive: 0.058 µM [activator, full curve, poor fit] | 
6 | O=C(Nc1ccc(N2CCCCCC2)cc1)c1ccc[nH]1 | active: 1.16 µM | 
7 | CS(=O)(=O)n1nc(-c2ccc(Cl)cc2)nc1SCc1ccccc1 | active: 20.6 µM | 
8 | N#Cc1cnc(Oc2ccc(Cl)cc2)nc1N | inconclusive: 29.1 µM [activator, single point] | 
9 | CCSc1nnc(SCC(=O)NC2CCCCC2)s1 |  | inactive: -8.33%
10 | O=C(CSc1nc2ccccc2c(=O)[nH]1)c1ccc(O)c(O)c1 |  | inactive: 21.4%
11 | O=C(Nc1ccc(Cl)cc1)Nc1nnc(SCc2ccccc2)s1 |  | inactive: 41.1%
12 | C=CCn1c(C)cc(C(=O)COC(=O)c2ccc(N)c([N+](=O)[O-])c2)c1C | active: 0.411 µM | 
13 | Cc1ccsc1/C=N/Nc1nc2ccccc2[nH]1 | active: 1.3 µM | 
14 | C=CCn1c(SCC(=O)Nc2ccc(-c3nc4ccc(C)cc4s3)cc2)nnc1-c1ccccc1 | inconclusive: 1.84 µM [activator, partial curve, poor fit] | 
15 | COc1ccccc1C(=O)NC(=S)NNC(=O)c1sc2ccccc2c1Cl |  | inactive: 43.8%
16 | O=C(NC(=S)Nc1ccccc1Br)C1CCCCC1 | active: 20.6 µM | 
17 | Cc1csc2nc(COC(=O)c3cccc(N(C)C)c3)cc(=O)n12 | inconclusive: 9.2 µM [activator, partial curve, poor fit] | 

Row | Compound | Potency | activation
18 | COc1ccc(-n2cnc3cc(C(=O)N4CCOCC4)ccc32)cc1 | inconclusive: 36.6 µM [activator, partial curve, poor fit] | 
19 | CC(C)c1ccc2oc(-c3ccc(N)cc3)nc2c1 | inconclusive: 2.91 µM [activator, partial curve, poor fit] | 
20 | CCCN1CCC(NC(=O)Cc2ccc(C)cc2)CC1 |  | inactive: -2.6%
21 | Cc1ccc2nc(-c3ccc(NC(=O)CCS(=O)(=O)c4ccccc4)cc3)sc2c1 | inconclusive: 2.91 µM [activator, partial curve, poor fit] | 
22 | COc1ccc2c(c1)CCC/C2=N\NC(=O)c1ccoc1C | inconclusive: 18.4 µM [activator, partial curve, poor fit] | 
23 | CCOc1ccc(C(O)Cc2nc3ccccc3n2C)cc1 (centres undefined) | inconclusive: 29.1 µM [activator, single point] | 
24 | CN(C)c1cccc(C(=O)NNC(=O)CN2C(=O)C3CC=CCC3C2=O)c1 (centres undefined) | active: 2.31 µM | 
25 | Cc1ccc(C(=O)CC(=O)COc2ccc(Cl)cc2)cc1 | inconclusive: 36.6 µM [activator, single point] | 
26 | COc1cc(NC(=O)CSCc2ccc(Cl)cc2)c(C(=O)O)cc1OC |  | inactive: -13%
27 | CCOC(=O)c1cccc(C2=CC(=O)C[C@H](c3ccc(OC)cc3)C2)c1 | inconclusive: 46.1 µM [activator, single point] | 
28 | Cc1ccc(C(=O)N/N=C2\CCc3ccccc32)c(C)c1 | inconclusive: 0.58 µM [activator, full curve, poor fit] | 
29 | N#Cc1ccccc1NC(=O)c1cccc(COc2ccc(Cl)cc2Cl)c1 | inconclusive: 1.84 µM [activator, partial curve, poor fit] | 
30 | Cc1ccc2oc(C(=O)Nc3cc(C)on3)c(C)c2c1 | inconclusive: 2.06 µM [activator, partial curve, poor fit] | 
31 | Cc1ccnc(NC(=S)NC(=O)c2cccs2)c1 | active: 0.082 µM | 
32 | CCCCOC(=O)Nc1ccc(N2CCCCC2)cc1 | inconclusive: 1.84 µM [activator, partial curve, poor fit] | 
33 | CCc1nnc(NC(=O)C2Cc3ccccc3CN2S(=O)(=O)c2cccs2)s1 (centres undefined) | inconclusive: 73.1 µM [activator, partial curve, poor fit] | 
34 | CN1CCN(C(=O)CCCN2C(=O)/C(=C/c3ccc(Cl)cc3)SC2=S)CC1 | active: 9.2 µM | 

Part of the list above in order of formula weight, smallest number first.
Row | Compound | Potency | activation
19 | CC(C)c1ccc2oc(-c3ccc(N)cc3)nc2c1 | inconclusive: 2.91 µM [activator, partial curve, poor fit] | 
32 | CCCCOC(=O)Nc1ccc(N2CCCCC2)cc1 | inconclusive: 1.84 µM [activator, partial curve, poor fit] | 
4 | O=C(CC1SC(N2CCCC2)=NC1=O)Nc1ccc(C(=O)Nc2ncccc2O)cc1 (centres undefined) | active: 16.4 µM | 

From PubChem BioAssay AID624305 (National Center for Advancing Translational Sciences (NCATS), 2012)
